{
  "source": "paper PMC12334247",
  "key": {"[1]": {"target": "T1, KIN10, endogenous in Arabidopsis plants (Arabidopsis thaliana (endogenous in Arabidopsis plantlets)) (UniProt Q38997)", "T1 sequence": "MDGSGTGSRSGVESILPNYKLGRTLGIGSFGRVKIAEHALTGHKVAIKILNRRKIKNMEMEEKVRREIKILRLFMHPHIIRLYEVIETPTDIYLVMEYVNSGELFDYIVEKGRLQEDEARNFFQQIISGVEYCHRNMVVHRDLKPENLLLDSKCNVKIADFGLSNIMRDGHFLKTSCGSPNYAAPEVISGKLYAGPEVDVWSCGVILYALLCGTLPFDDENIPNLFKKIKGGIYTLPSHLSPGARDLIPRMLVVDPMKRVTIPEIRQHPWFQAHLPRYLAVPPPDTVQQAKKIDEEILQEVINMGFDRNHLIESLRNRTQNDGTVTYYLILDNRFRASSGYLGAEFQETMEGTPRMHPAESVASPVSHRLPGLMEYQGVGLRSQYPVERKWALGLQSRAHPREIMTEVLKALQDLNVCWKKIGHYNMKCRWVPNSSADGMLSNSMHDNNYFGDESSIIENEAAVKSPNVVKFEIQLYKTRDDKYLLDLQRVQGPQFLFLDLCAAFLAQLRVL", "experiment": "co-IP; extracts of shoots of 9-day-old pAIP10::AIP10-YFP plants; results say anti-KIN10 antibody, methods say GFP-Trap A beads, overnight at 4°C, 150 mM NaCl; blot with anti-KIN10 and anti-GFP"}, "[2]": {"target": "T2, ABAP1, endogenous in Arabidopsis plants (Arabidopsis thaliana (endogenous in promAIP10::AIP10-YFP plants)) (UniProt B7U179)", "T2 sequence": "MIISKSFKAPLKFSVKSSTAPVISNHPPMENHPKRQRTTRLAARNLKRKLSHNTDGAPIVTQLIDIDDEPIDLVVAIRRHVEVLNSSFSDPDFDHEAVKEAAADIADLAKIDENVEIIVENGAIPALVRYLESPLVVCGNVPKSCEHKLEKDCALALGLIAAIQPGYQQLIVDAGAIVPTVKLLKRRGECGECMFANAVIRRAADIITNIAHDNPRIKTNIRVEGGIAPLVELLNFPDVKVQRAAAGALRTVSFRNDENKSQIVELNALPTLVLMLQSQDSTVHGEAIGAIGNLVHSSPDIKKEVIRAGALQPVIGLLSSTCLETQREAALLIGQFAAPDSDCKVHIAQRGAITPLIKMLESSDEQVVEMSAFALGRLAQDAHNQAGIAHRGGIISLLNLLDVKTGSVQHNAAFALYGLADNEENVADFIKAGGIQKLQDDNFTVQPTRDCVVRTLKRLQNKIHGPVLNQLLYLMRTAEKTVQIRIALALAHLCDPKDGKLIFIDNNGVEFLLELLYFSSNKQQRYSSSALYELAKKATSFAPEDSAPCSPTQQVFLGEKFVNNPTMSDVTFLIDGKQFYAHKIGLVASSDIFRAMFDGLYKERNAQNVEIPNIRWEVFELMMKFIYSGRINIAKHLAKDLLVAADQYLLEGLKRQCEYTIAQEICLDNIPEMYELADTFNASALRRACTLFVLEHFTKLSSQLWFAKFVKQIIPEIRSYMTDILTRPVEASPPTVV", "experiment": "co-IP; anti-ABAP1 antibody with protein A Sepharose; 300 μg protein extract of shoot and root (9 DAG) and inflorescence of pAIP10::AIP10-YFP plants; NaCl reduced to 200 mM; blot with anti-ABAP1 and anti-GFP"}, "[3]": {"target": "ABAP1 interacting protein 10 (AIP10), yeast two-hybrid fusion (Arabidopsis thaliana)", "experiment": "two-hybrid; yeast strain PJ694-a; fusions to AD (pDEST22) and BD (pDEST32); -Leu/-Trp selects co-transformation, -Leu/-Trp/-His/-Ade selects for strong interaction"}, "[4]": {"target": "GST alone (glutathione S-transferase)", "experiment": "pull-down; semi-in vivo: bacterially expressed GST::AIP10 as bait, ABAP1-GFP protein extract; Western blot; only the target purified"}, "[5]": {"target": "GST::AIP10 (recombinant AIP10-GST fusion) (Arabidopsis thaliana)", "experiment": "pull-down; semi-in vivo: bacterially expressed GST::AIP10 as bait, ABAP1-GFP protein extract; Western blot; only the target purified"}, "[6]": {"target": "GST alone (glutathione S-transferase)", "experiment": "pull-down; semi-in vivo: full-length GST::AIP10 as bait, protein extracts of Arabidopsis 9-day-old plantlets; blot with anti-KIN10; only the target purified"}, "[7]": {"target": "GST::AIP10 (recombinant AIP10-GST fusion) (Arabidopsis thaliana)", "experiment": "pull-down; semi-in vivo: full-length GST::AIP10 as bait, protein extracts of Arabidopsis 9-day-old plantlets; blot with anti-KIN10; only the target purified"}},
  "note": "These are yes or no findings as the source states them, for the method shown. For some of these results: A result given as binding can be weak or reduced; the word gives no strength. For some of these results: Sequences can lack the tags named with a protein. For some of these results: In cells and extracts the contact can be indirect.",
  "data": [
    {"molecule": "AIP10-YFP C-terminal fusion protein (promAIP10::AIP10-YFP) (Arabidopsis thaliana)", "values": [
      {"measurement": "binding", "setting": "[1]", "result": "binds"},
      {"measurement": "binding", "setting": "[2]", "result": "binds"}
    ]},
    {"molecule": "Armadillo BTB Arabidopsis protein 1 (ABAP1), yeast two-hybrid fusion (protein, UniProt B7U179 1-737) MIISKSFKAPLKFSVKSSTAPVISNHPPMENHPKRQRTTRLAARNLKRKLSHNTDGAPIVTQLIDIDDEPIDLVVAIRRHVEVLNSSFSDPDFDHEAVKEAAADIADLAKIDENVEIIVENGAIPALVRYLESPLVVCGNVPKSCEHKLEKDCALALGLIAAIQPGYQQLIVDAGAIVPTVKLLKRRGECGECMFANAVIRRAADIITNIAHDNPRIKTNIRVEGGIAPLVELLNFPDVKVQRAAAGALRTVSFRNDENKSQIVELNALPTLVLMLQSQDSTVHGEAIGAIGNLVHSSPDIKKEVIRAGALQPVIGLLSSTCLETQREAALLIGQFAAPDSDCKVHIAQRGAITPLIKMLESSDEQVVEMSAFALGRLAQDAHNQAGIAHRGGIISLLNLLDVKTGSVQHNAAFALYGLADNEENVADFIKAGGIQKLQDDNFTVQPTRDCVVRTLKRLQNKIHGPVLNQLLYLMRTAEKTVQIRIALALAHLCDPKDGKLIFIDNNGVEFLLELLYFSSNKQQRYSSSALYELAKKATSFAPEDSAPCSPTQQVFLGEKFVNNPTMSDVTFLIDGKQFYAHKIGLVASSDIFRAMFDGLYKERNAQNVEIPNIRWEVFELMMKFIYSGRINIAKHLAKDLLVAADQYLLEGLKRQCEYTIAQEICLDNIPEMYELADTFNASALRRACTLFVLEHFTKLSSQLWFAKFVKQIIPEIRSYMTDILTRPVEASPPTVV", "values": [
      {"measurement": "binding", "setting": "[3]", "result": "binds"}
    ]},
    {"molecule": "ABAP1-GFP (protein, UniProt B7U179 1-737) MIISKSFKAPLKFSVKSSTAPVISNHPPMENHPKRQRTTRLAARNLKRKLSHNTDGAPIVTQLIDIDDEPIDLVVAIRRHVEVLNSSFSDPDFDHEAVKEAAADIADLAKIDENVEIIVENGAIPALVRYLESPLVVCGNVPKSCEHKLEKDCALALGLIAAIQPGYQQLIVDAGAIVPTVKLLKRRGECGECMFANAVIRRAADIITNIAHDNPRIKTNIRVEGGIAPLVELLNFPDVKVQRAAAGALRTVSFRNDENKSQIVELNALPTLVLMLQSQDSTVHGEAIGAIGNLVHSSPDIKKEVIRAGALQPVIGLLSSTCLETQREAALLIGQFAAPDSDCKVHIAQRGAITPLIKMLESSDEQVVEMSAFALGRLAQDAHNQAGIAHRGGIISLLNLLDVKTGSVQHNAAFALYGLADNEENVADFIKAGGIQKLQDDNFTVQPTRDCVVRTLKRLQNKIHGPVLNQLLYLMRTAEKTVQIRIALALAHLCDPKDGKLIFIDNNGVEFLLELLYFSSNKQQRYSSSALYELAKKATSFAPEDSAPCSPTQQVFLGEKFVNNPTMSDVTFLIDGKQFYAHKIGLVASSDIFRAMFDGLYKERNAQNVEIPNIRWEVFELMMKFIYSGRINIAKHLAKDLLVAADQYLLEGLKRQCEYTIAQEICLDNIPEMYELADTFNASALRRACTLFVLEHFTKLSSQLWFAKFVKQIIPEIRSYMTDILTRPVEASPPTVV", "values": [
      {"measurement": "binding", "setting": "[4]", "result": "no binding"},
      {"measurement": "binding", "setting": "[5]", "result": "binds"}
    ]},
    {"molecule": "KIN10, endogenous in Arabidopsis plants (enzyme, UniProt Q38997 1-512) MDGSGTGSRSGVESILPNYKLGRTLGIGSFGRVKIAEHALTGHKVAIKILNRRKIKNMEMEEKVRREIKILRLFMHPHIIRLYEVIETPTDIYLVMEYVNSGELFDYIVEKGRLQEDEARNFFQQIISGVEYCHRNMVVHRDLKPENLLLDSKCNVKIADFGLSNIMRDGHFLKTSCGSPNYAAPEVISGKLYAGPEVDVWSCGVILYALLCGTLPFDDENIPNLFKKIKGGIYTLPSHLSPGARDLIPRMLVVDPMKRVTIPEIRQHPWFQAHLPRYLAVPPPDTVQQAKKIDEEILQEVINMGFDRNHLIESLRNRTQNDGTVTYYLILDNRFRASSGYLGAEFQETMEGTPRMHPAESVASPVSHRLPGLMEYQGVGLRSQYPVERKWALGLQSRAHPREIMTEVLKALQDLNVCWKKIGHYNMKCRWVPNSSADGMLSNSMHDNNYFGDESSIIENEAAVKSPNVVKFEIQLYKTRDDKYLLDLQRVQGPQFLFLDLCAAFLAQLRVL", "values": [
      {"measurement": "binding", "setting": "[6]", "result": "no binding"},
      {"measurement": "binding", "setting": "[7]", "result": "binds"}
    ]}
  ]
}
